Reference: article PMC7457484
Results are given in words; binding and its absence hold for the method and conditions named. Binding seen in cells or lysates may run through a third protein. These calls come from enrichment with a bait or labelling near it, and not all partners need be listed.

Sequences of proteins named here, by UniProt entry; tags and fusion partners are left off.
UniProt O95071: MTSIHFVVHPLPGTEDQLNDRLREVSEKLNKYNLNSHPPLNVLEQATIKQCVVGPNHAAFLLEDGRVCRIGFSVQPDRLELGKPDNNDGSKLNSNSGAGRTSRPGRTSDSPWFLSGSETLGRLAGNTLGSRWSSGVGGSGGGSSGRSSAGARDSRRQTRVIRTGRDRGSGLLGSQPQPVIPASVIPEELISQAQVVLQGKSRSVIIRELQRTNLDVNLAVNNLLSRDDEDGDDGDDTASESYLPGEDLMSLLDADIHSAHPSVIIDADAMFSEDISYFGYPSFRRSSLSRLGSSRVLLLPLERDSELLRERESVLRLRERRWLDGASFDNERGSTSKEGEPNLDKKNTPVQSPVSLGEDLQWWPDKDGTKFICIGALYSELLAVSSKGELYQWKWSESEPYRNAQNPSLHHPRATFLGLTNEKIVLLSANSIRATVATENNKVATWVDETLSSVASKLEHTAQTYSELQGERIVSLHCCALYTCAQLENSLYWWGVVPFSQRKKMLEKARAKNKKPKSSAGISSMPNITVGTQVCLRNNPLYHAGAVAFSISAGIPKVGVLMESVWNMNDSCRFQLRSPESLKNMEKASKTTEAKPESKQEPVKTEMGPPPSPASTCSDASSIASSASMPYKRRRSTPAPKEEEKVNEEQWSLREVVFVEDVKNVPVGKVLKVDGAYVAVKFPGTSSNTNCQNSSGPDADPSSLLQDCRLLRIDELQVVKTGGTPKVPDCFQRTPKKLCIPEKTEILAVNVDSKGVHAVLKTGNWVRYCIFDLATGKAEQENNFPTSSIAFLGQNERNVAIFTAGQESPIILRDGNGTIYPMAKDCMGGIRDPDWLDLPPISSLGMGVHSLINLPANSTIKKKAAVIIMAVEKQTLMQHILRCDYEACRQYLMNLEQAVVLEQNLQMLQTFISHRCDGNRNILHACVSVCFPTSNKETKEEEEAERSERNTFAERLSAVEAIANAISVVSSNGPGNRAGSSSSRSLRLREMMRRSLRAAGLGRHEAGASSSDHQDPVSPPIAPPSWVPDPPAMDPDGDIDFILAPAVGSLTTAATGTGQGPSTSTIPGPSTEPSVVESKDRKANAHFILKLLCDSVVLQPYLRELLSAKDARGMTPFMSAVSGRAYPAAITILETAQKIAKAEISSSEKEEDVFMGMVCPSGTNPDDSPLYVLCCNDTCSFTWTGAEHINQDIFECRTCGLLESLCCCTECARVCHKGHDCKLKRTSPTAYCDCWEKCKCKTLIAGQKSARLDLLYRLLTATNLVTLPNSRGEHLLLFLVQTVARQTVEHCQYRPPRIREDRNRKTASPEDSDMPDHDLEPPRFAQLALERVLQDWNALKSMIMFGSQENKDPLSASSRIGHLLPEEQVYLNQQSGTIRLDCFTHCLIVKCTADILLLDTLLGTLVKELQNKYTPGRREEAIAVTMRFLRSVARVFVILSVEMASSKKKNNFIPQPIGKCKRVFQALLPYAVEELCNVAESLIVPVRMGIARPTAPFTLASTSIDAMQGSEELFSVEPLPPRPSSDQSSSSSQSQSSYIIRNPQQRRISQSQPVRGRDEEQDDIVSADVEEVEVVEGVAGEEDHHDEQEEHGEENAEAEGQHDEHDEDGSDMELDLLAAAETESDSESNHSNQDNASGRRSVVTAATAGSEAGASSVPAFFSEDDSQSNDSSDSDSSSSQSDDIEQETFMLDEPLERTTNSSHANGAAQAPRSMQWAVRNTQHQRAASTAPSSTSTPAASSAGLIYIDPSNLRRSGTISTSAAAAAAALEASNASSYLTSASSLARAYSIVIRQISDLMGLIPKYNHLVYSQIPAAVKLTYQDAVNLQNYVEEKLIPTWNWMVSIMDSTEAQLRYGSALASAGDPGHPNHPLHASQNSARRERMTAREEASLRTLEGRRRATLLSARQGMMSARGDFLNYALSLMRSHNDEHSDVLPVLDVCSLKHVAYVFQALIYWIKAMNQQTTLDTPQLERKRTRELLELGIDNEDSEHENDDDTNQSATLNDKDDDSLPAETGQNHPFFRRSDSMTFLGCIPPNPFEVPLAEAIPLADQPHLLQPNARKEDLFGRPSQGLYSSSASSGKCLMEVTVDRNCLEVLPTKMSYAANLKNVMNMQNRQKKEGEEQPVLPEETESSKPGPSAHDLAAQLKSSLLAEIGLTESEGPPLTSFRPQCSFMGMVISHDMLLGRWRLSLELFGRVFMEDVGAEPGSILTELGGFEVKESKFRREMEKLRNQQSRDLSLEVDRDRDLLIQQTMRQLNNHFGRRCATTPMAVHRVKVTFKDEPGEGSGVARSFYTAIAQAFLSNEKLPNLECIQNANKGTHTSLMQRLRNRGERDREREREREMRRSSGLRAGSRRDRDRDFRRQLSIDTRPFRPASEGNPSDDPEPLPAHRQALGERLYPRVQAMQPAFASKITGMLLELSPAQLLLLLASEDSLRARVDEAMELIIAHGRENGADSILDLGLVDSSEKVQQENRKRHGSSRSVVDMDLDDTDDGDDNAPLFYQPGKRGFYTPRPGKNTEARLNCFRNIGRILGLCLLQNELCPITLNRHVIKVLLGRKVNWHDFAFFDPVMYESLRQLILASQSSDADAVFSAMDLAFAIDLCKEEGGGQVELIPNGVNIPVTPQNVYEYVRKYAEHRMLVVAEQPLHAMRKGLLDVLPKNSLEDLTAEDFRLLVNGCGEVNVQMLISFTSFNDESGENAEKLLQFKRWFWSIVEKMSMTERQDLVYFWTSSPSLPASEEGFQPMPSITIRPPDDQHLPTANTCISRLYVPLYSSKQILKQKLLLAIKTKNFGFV
UniProt Q92616: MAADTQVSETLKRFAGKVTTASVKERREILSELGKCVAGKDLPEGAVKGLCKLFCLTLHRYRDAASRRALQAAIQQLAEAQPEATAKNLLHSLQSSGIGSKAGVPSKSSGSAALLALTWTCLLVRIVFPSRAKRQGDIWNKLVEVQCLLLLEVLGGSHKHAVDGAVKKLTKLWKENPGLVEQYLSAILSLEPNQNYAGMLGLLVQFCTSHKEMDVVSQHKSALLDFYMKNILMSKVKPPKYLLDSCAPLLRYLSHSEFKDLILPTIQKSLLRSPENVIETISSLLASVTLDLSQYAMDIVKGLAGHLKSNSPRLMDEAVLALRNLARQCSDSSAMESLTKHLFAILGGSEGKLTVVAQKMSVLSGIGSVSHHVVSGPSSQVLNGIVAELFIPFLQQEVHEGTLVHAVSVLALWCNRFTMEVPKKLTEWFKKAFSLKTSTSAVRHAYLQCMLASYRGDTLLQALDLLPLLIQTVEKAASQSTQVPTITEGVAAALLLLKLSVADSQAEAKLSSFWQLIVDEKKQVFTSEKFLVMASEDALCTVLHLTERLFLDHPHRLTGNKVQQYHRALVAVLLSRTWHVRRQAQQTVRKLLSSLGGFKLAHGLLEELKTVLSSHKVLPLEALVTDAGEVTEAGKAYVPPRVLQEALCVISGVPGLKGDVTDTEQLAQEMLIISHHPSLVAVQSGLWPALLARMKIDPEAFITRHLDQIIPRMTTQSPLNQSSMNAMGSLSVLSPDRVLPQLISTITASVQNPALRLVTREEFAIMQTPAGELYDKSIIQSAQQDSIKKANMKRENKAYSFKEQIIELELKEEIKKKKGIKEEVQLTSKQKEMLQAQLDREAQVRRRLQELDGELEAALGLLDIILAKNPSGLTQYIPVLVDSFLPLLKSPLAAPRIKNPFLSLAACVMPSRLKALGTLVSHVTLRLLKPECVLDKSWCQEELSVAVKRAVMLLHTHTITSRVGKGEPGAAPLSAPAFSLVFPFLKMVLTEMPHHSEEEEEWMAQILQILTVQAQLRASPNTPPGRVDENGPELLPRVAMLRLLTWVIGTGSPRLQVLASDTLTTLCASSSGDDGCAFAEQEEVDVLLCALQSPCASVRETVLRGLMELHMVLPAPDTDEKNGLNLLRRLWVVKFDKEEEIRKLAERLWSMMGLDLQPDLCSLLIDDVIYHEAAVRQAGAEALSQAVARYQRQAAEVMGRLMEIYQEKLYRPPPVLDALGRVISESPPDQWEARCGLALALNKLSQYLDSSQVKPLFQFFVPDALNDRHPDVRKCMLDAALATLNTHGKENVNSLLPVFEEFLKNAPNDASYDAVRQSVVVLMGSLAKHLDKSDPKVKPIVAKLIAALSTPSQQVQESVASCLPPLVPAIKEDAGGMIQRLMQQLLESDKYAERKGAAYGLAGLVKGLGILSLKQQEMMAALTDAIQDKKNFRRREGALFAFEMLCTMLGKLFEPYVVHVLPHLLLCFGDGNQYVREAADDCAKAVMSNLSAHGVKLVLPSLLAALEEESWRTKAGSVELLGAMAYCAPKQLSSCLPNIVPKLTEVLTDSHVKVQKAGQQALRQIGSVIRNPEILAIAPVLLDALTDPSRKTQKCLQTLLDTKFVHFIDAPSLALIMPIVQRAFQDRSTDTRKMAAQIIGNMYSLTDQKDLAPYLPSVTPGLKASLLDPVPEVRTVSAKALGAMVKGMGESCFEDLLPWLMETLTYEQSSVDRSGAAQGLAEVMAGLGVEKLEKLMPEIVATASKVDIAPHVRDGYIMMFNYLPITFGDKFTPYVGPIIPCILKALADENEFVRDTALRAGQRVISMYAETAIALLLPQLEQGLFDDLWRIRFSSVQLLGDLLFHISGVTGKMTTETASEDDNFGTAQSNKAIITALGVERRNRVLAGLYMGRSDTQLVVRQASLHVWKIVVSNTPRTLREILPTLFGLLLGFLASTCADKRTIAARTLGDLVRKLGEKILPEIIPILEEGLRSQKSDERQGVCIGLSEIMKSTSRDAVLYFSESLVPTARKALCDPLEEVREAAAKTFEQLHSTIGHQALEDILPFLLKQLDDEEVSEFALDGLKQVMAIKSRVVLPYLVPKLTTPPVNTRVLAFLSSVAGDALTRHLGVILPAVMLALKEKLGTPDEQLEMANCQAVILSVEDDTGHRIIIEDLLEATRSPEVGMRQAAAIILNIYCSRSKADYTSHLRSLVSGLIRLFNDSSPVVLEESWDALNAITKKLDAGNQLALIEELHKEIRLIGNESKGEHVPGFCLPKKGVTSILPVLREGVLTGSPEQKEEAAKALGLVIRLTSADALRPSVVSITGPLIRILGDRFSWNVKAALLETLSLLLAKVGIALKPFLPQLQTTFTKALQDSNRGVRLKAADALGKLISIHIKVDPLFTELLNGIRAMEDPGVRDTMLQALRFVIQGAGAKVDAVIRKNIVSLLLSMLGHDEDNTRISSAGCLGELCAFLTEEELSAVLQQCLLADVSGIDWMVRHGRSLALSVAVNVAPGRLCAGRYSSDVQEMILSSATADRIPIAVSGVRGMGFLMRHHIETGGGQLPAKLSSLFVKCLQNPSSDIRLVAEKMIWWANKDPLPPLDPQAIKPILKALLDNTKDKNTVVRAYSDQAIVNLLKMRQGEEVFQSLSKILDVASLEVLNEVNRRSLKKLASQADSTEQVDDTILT

Molecular target: FLAG-tagged UBR5 (human) (UniProt O95071)
Assay: affinity purification with mass spectrometry; HEK293T transiently transfected in triplicate with FLAG-UBR5 or FLAG alone (control); 1% CHAPS lysis buffer; anti-FLAG beads, washed, competed off with FLAG peptides in molar excess; mass spectrometry

- binding: binds
Substance: GCN1L1 (from UniProt Q92616 1-2671)
